These results are taken from paper doi:10.1101/2022.08.02.502465.

Sequences of proteins named here, by UniProt entry; tags and fusion partners are left off.
UniProt P0A988, whole entry: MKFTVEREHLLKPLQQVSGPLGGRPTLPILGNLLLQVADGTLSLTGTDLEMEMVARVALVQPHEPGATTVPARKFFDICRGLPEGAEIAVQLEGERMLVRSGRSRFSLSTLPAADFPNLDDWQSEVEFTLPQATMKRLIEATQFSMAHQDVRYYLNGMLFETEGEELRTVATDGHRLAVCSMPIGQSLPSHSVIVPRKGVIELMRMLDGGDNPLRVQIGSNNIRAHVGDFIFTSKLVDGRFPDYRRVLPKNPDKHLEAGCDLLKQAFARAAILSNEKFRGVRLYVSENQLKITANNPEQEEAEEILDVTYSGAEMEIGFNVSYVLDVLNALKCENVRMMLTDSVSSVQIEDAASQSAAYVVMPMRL
UniProt P00582, whole entry: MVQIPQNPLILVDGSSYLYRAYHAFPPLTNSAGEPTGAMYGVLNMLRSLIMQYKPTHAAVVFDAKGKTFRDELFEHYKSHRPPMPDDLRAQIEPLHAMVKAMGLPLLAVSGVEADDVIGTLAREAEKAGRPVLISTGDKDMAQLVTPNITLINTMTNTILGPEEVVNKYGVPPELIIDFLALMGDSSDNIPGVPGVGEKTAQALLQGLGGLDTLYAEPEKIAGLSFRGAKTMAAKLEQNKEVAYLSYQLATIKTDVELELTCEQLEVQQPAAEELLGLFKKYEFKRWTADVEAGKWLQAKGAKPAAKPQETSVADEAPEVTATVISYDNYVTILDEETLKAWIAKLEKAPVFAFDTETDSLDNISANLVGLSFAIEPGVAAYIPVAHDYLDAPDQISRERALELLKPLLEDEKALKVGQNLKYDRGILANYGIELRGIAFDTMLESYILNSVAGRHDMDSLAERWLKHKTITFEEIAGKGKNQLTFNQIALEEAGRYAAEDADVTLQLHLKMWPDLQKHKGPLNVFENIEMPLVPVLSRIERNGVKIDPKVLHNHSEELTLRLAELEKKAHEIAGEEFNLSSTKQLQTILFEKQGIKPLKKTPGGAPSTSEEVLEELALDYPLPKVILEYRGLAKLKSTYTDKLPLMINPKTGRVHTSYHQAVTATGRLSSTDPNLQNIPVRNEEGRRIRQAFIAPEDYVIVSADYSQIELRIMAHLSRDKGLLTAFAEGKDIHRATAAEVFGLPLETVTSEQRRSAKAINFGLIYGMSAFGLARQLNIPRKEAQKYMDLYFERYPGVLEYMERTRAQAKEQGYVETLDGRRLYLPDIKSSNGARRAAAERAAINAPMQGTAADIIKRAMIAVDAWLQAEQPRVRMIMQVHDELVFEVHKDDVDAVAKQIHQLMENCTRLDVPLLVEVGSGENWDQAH

Results are given in words; binding and its absence hold for the method and conditions named.

The target of the test is DNA sliding clamp β (E. coli) (UniProt P0A988). As to the kind of experiment: SEC. (In general: SEC sorts molecules by how far they enter the pores of the column.)

For “DNA polymerase I (from UniProt P00582 1-928) (enzyme)”, the binding entry was “no binding (tested: 10 μM)”.
